The record followed here is paper PMC9810599.

Amino acid sequences for entries named in this document (tags omitted). Residues count along the entry.
UniProt P0CS90, residues 24-654: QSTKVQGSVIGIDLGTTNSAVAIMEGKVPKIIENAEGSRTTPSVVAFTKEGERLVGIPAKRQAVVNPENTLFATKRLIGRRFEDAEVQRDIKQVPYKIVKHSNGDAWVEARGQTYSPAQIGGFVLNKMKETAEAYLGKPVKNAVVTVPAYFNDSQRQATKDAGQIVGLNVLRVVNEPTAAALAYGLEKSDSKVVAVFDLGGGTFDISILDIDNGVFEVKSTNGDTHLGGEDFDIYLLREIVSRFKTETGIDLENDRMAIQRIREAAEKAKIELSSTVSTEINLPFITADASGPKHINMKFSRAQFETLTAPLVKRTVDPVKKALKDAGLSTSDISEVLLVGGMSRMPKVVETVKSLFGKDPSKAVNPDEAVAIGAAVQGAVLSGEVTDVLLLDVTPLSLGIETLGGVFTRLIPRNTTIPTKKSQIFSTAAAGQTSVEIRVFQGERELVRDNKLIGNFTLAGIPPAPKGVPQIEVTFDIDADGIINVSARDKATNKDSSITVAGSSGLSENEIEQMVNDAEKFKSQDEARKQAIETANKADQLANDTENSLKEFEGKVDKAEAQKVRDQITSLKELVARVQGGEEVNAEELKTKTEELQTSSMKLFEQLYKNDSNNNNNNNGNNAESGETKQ
UniProt P07251, residues 36-545: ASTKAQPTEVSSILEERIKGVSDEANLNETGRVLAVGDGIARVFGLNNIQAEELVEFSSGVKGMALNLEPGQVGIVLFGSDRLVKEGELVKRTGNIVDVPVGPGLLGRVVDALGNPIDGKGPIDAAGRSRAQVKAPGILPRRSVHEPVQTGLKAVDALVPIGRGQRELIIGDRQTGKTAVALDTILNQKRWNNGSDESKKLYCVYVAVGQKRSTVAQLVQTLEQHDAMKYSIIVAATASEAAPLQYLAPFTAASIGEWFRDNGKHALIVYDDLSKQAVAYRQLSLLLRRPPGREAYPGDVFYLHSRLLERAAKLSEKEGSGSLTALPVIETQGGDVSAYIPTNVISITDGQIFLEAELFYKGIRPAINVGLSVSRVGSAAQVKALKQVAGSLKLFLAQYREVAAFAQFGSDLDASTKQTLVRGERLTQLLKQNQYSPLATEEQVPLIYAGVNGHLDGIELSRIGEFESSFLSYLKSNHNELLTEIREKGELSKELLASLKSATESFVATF
UniProt P00830, residues 34-511: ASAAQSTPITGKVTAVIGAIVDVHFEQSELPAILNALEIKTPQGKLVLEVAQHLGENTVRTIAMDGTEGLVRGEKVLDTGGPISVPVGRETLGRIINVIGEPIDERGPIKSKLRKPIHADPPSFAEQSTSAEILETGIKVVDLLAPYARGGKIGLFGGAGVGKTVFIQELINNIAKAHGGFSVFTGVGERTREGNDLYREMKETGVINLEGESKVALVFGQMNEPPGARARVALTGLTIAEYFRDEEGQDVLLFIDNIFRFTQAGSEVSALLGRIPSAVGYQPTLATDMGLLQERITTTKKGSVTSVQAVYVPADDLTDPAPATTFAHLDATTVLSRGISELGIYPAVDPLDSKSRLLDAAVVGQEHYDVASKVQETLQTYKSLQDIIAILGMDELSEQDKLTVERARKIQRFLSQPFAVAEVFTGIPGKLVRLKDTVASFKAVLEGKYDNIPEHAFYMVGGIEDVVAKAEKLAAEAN

No constants are given. Whether binding was seen depends on the method and setting. In cells and extracts the contact can be indirect. A yes stands for co-enrichment or nearness to the bait. Other partners may have been found.

The target of the experiment is His-tagged mitochondrial Hsp70 (mtHsp70His) (S. cerevisiae) (UniProt P0CS90). Put plainly: affinity purification with mass spectrometry; mtHsp70His purified on Ni-NTA agarose from digitonin-lysed mitochondria of SILAC-labelled ρ+ and ρ0 cells, in the absence of ATP; elution fractions mixed; ratios ρ0 versus ρ+.

Take “Atp1 (subunit α of the ATP synthase) (from UniProt P07251 36-545)”: the binding result is reported as “binds”.

Regarding “Atp2 (subunit β of the ATP synthase) (from UniProt P00830 34-511)”, the binding result is recorded as “binds”.
